# Reference: PubChem BioAssay
# Where “and” joins values, the source holds several entries; their conditions need not be identical. Identical values can stand only once. The list shows a part of the results. Shown are side measurements of this screen, not its main read-out; they come without a call. For some assays here: The list favours compounds with an active or inconclusive main result.
# Experiments:
# PubChem AID 1586 = details: yeast two-hybrid polyglutamine protein interaction, reporter readout; measured here: averaged growth delta OD
# [1] = enhancers of SMN2 over SMN1 splicing, cell-based, SMN2/SMN1 luciferase reporters (AID 1598); details: SMN2 vs SMN1 luciferase splicing reporter cells, at 10 µM; SMN1 luciferase ratio: measured here: SMN1 luciferase reporter average; SMN2 luciferase ratio: measured here: SMN2 luciferase reporter average, stronger effect = higher value
# [2] = protection against mutant huntingtin cytotoxicity, PC12 cells, LDH release (AID 1610); details: PC12 mutant huntingtin toxicity, final LDH at 4 uM, stronger effect = lower value
SMILES,signal change (36 h minus 0 h) (PubChem AID 1586),SMN1 luciferase ratio [1],SMN2 luciferase ratio [1],normalised LDH release [2]
CC1=C(C(=O)O)N2C(=O)[C@@H](NC(=O)[C@H](N)C3=CCC=CC3)[C@H]2SC1,0.122,0.86,1.03,0.968
CCCCOc1ccc(CC(=O)NO)cc1,0.0563,1.14,1.04,0.893
CN1CCC(=C2c3ccccc3Sc3ccccc32)CC1,0.103,0.75,0.81,1.02
CC(C(=O)O)c1cccc(Oc2ccccc2)c1 (stereo not drawn),0.195,0.89,0.88,0.855
Cn1c(=O)c2c(ncn2C)n(C)c1=O,0.123,0.99,0.97,0.752
CCO/C([O-])=N/c1c[n+](N2CCOCC2)no1,-0.0594,1.02,0.89,0.795
CC(=O)O[C@]1(C(C)=O)CCC2C3C=C(Cl)C4=CC(=O)[C@@H]5C[C@@H]5[C@]4(C)C3CC[C@@]21C (stereo partly drawn),0.176,0.95,0.86,0.723
Cc1c(NC(C)C)c(=O)n(-c2ccccc2)n1C,0.0945,0.88,0.86,0.783
NC[C@@H]1O[C@H](O[C@@H]2[C@@H](CO)OC(O[C@@H]3[C@@H](O)[C@H](N)C[C@H](N)[C@H]3OC3O[C@H](CN)[C@@H](O)[C@H](O)[C@H]3N)[C@@H]2O)[C@H](N)[C@@H](O)[C@@H]1O (stereo partly drawn),0.0664,0.9,0.87,1.12
CN1C2CC(OC(=O)[C@H](CO)c3ccccc3)C[C@H]1[C@H]1OC21 (stereo partly drawn),0.145,0.87,0.96,0.924
C[C@H]1CC2C([C@@H](O)C[C@@]3(C)C2CC[C@]3(O)C(=O)CO)[C@@]2(C)C=CC(=O)C=C12 (stereo partly drawn),0.109,1.02,1.02,0.705
C[C@]12CCC3c4ccc(O)cc4CCC3C1C[C@@H](O)[C@@H]2O (stereo partly drawn),0.0622,0.98,0.8,0.768
CN1C2CCC1CC(OC(c1ccccc1)c1ccccc1)C2 (stereo not drawn),0.101,0.82,0.85,0.777
COC(=O)C(N)CS (stereo not drawn),0.0614,0.93,0.85,0.876
CC1(C)S[C@@H]2[C@H](NC(=O)[C@@H](N)c3ccc(O)cc3)C(=O)N2[C@H]1C(=O)O,0.207,0.81,0.75,0.883
CCc1nc(N)nc(N)c1-c1ccc(Cl)cc1,0.106,0.53,0.43,0.95
CCOC(=O)C(C)(C)Oc1ccc(Cl)cc1,0.43 and 0.167,1.01 and 0.91,1.03 and 0.94,0.849 and 0.902
COc1ccc([C@@H]2CC(=O)c3c(O)cc(O)cc3O2)cc1O,0.349,1.47,1.35,0.966
NCCCC(=O)O,0.221,0.92,1.02,0.941
CC1COc2c(N3CCN(C)CC3)c(F)cc3c(=O)c(C(=O)O)cn1c23 (stereo not drawn),0.0715,0.6,0.87,0.924
CCn1cc(C(=O)O)c(=O)c2cc(F)c(N3CCNCC3)cc21,0.116,0.87,0.76,1.09
NS(=O)(=O)c1cc(C(=O)O)c(NCc2ccco2)cc1Cl,0.162,0.91,0.99,1.04
CC(C)(C)NCC(O)c1ccc(O)c(CO)c1 (stereo not drawn),0.37,1,0.89,0.429
CC(C)(C)NCC(O)c1cc(O)cc(O)c1 (stereo not drawn),0.056,0.9,0.93,0.591

SMILES,signal change (36 h minus 0 h) (PubChem AID 1586),SMN1 luciferase ratio [1],SMN2 luciferase ratio [1],normalised LDH release [2]
NC(N)=NC(=O)c1nc(Cl)c(N)nc1N,0.04,0.96,0.97,0.801
CN1C(C(=O)Nc2ccccn2)=C(O)c2ccccc2S1(=O)=O,0.0803,0.85,0.91,0.421
C=C[C@H]1CN2CC[C@H]1C[C@@H]2[C@@H](O)c1ccnc2ccc(OC)cc12,0.0593,0.85,0.94,0.421
CC(Oc1ccccc1)C(=O)N[C@@H]1C(=O)N2[C@@H]1SC(C)(C)[C@@H]2C(=O)O (stereo partly drawn),0.0525,0.81,0.85,0.372
CCn1cc(C(=O)O)c(=O)c2cc(F)c(N3CCNC(C)C3)c(F)c21 (stereo not drawn),0.201,0.91,0.77,0.171
CCN(CC)CCOc1ccc(/C(=C(\Cl)c2ccccc2)c2ccccc2)cc1,0.0834,0.9,0.87,0.938
CN1CCN(CC(=O)N2c3ccccc3C(=O)Nc3cccnc32)CC1,0.185,0.92,0.88,0.717
CC12CCC(CC1)C(C)(C)O2,0.119,0.99,0.86,0.533
CNCCC=C1c2ccccc2CCc2ccccc21,0.0956,0.88,0.68,0.964
CC1(C)C2CC[C@]3(C)C(C(=O)C=C4[C@H]5C[C@@](C)(C(=O)O)CC[C@]5(C)CC[C@]43C)[C@@]2(C)CC[C@@H]1O (stereo partly drawn),0.0327,0.97,0.98,0.743
CCCCOc1ccc(OCCCN2CCOCC2)cc1,0.606,1.06,0.88,0.998
Cc1onc(-c2ccccc2)c1C(=O)NC1C(=O)N2[C@@H]1SC(C)(C)[C@@H]2C(=O)O (stereo partly drawn),0.177,0.88,0.89,1.11
C#C[C@]1(OC(C)=O)CCC2C3CCC4=CC(=O)CC[C@@H]4C3CC[C@@]21C (stereo partly drawn),-0.0149,0.86,0.84,0.866
Cn1cc[nH]c1=S,0.0447,0.9,0.91,0.887
CN(C)CCC(c1ccc(Cl)cc1)c1ccccn1 (stereo not drawn),0.0784,0.89,0.92,1.18
CCN(CC)CCOC(=O)C1(C2CCCCC2)CCCCC1,0.208,0.96,0.96,0.941
Cc1nnc(NS(=O)(=O)c2ccc(N)cc2)s1,0.147,0.96,1,1.17
CC(=O)NS(=O)(=O)c1ccc(N)cc1,0.191,0.96,1.02,1.16
COc1c(OC)c2occc2c2oc(=O)ccc12,0.303,0.81,0.9,0.943
Cc1c(OCC(F)(F)F)ccnc1CS(=O)c1nc2ccccc2[nH]1 (stereo not drawn),0.0895,1.5,1.13,1.18
CC(=O)NCCc1c[nH]c2ccc(O)cc12,0.0699,0.94,0.86,0.957
CC(=O)NC(Cc1ccccc1)C(=O)O (stereo not drawn),0.19,0.87,0.93,0.882
C[N+](C)(C)CCCCCC[N+](C)(C)C,0.297,0.93,0.87,0.659
